Results on one molecule are retold here after patent US20200353078A1.

Amino acid sequences for entries named in this document (tags omitted). A change or cut given only in a name is not applied to a line headed by its entry.
UniProt O95760: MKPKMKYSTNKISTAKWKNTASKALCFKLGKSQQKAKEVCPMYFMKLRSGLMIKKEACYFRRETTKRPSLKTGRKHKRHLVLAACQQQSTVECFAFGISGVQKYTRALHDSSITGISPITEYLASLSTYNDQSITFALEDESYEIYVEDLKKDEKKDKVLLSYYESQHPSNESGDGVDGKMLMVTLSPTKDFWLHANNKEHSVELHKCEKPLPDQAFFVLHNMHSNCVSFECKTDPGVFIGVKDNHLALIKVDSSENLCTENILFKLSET

These are yes or no findings as the source states them, for the method shown. Binding calls can cover weak binding; strength is not graded here.

Assay [1] deals with redIL-33 (detagged human IL33-01, BK349) (human) (UniProt O95760). The experiment in a line: sandwich immunoassay (MedI Assay 1): IL330004 capture, biotinylated IL330425 detection; IL-33 titrated.
Assay [2] shares this target. The experiment in a line: sandwich immunoassay (MedI Assay 2): IL330425 capture, biotinylated sST2.Fc detection; IL-33 titrated.

B1: IL330425 (antibody, V domains shown)
VH: QVQLVQSGGGVVQPGRSLRLSCAASGFTFSEYSMHWVRQAPGKGLEYVSTISSNGAGTYYADSVKGRVTISRDNSKNTLYVQMSSLRPEDTAVYYCVKSLTKYPYGNYFDYWGRGTTVTVSS
VL: SSELTQDPAVSVALGQTVRITCQGDSLRSYYASWYQQKPGQAPVLVIYGKNNRPSGIPDRFSGSSSGNTASLTITRAQAEDEADYYCNSRDSSGNHVVFGGGTKLTVL
Consider B1, for which the binding entry in assay [1] and in assay [2] was “binds” each time.
